Results on 26 targets are retold here after the supplement of paper PMC7666118.

Amino acid sequences for entries named in this document (tags omitted). A change or cut given only in a name is not applied to a line headed by its entry.
UniProt Q9C0K1: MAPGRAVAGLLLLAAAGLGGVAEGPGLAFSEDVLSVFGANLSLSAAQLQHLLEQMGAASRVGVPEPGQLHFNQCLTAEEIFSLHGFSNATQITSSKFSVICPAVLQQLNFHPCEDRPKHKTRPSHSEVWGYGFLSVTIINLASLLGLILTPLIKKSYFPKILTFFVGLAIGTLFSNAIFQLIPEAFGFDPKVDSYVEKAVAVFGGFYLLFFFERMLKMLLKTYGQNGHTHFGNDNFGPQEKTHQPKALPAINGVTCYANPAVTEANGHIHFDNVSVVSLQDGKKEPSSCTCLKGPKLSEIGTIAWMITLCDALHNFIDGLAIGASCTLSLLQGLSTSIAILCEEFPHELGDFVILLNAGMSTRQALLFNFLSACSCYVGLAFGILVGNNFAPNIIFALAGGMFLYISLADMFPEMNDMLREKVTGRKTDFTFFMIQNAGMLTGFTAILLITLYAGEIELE
UniProt Q6PML9: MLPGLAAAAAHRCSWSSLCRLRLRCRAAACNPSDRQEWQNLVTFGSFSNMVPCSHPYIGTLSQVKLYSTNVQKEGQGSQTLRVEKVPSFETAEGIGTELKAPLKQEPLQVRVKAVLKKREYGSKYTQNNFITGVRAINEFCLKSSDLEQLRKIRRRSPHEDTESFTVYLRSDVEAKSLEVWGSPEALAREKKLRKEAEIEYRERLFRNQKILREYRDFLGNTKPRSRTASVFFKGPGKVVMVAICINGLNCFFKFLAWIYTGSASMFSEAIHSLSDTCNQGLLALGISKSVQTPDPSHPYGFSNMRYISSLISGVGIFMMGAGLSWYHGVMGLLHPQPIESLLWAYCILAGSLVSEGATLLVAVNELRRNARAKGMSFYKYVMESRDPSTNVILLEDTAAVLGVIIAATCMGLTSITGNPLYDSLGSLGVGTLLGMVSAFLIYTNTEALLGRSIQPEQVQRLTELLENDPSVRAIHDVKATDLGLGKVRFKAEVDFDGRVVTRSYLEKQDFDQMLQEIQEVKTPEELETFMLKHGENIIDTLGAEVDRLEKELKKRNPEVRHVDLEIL
UniProt Q9Y3B1: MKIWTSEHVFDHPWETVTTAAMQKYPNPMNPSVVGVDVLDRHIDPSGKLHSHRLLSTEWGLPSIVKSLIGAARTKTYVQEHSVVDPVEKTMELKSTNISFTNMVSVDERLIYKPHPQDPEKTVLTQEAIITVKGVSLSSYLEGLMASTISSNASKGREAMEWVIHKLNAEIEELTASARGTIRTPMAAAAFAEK
UniProt P78383: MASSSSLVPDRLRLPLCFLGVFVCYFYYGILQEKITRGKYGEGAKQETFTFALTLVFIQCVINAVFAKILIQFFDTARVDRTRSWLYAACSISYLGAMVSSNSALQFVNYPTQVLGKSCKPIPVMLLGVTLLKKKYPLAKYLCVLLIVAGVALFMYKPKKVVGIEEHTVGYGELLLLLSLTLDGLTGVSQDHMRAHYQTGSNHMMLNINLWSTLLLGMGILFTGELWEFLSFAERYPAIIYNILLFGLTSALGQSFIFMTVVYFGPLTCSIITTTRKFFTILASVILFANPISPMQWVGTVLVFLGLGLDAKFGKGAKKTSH
UniProt Q8NEM2: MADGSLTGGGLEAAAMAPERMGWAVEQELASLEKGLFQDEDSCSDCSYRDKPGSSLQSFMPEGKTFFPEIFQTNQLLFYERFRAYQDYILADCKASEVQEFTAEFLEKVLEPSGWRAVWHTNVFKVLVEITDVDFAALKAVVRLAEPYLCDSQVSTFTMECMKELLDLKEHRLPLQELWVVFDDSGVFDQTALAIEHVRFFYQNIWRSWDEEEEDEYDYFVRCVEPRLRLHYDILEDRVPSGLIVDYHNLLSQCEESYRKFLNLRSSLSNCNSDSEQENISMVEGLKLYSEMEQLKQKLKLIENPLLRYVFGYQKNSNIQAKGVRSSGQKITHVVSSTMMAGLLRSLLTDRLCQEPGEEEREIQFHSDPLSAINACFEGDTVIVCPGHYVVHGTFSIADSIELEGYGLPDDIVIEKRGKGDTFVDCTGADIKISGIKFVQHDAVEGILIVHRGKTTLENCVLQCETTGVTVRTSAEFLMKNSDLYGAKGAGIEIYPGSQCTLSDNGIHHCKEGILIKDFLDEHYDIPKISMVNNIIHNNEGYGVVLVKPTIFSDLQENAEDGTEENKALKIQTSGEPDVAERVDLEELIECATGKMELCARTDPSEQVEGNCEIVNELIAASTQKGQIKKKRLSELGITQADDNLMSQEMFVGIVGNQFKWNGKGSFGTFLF
UniProt P19634, whole entry: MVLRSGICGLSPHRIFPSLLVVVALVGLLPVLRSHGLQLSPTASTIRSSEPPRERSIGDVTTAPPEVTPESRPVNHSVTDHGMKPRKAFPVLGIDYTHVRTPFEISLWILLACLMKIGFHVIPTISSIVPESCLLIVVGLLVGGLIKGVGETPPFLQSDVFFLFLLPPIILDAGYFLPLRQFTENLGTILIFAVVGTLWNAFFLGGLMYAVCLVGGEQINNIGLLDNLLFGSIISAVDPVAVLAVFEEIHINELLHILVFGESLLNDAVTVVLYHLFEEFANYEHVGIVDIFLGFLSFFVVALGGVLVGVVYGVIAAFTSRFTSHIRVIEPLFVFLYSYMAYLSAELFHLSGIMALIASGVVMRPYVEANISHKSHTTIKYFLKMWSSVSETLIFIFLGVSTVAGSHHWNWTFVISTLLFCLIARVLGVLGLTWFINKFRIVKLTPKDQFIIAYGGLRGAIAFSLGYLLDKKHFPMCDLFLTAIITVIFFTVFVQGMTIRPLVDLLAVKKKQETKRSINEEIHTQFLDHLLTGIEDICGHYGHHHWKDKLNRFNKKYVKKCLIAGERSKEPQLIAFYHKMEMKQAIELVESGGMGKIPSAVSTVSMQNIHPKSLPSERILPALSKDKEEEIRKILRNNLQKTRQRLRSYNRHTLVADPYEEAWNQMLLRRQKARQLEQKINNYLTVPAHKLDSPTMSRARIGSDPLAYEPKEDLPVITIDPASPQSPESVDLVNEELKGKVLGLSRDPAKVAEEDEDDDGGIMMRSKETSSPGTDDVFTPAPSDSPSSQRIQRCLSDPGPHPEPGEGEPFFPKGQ
UniProt Q13884: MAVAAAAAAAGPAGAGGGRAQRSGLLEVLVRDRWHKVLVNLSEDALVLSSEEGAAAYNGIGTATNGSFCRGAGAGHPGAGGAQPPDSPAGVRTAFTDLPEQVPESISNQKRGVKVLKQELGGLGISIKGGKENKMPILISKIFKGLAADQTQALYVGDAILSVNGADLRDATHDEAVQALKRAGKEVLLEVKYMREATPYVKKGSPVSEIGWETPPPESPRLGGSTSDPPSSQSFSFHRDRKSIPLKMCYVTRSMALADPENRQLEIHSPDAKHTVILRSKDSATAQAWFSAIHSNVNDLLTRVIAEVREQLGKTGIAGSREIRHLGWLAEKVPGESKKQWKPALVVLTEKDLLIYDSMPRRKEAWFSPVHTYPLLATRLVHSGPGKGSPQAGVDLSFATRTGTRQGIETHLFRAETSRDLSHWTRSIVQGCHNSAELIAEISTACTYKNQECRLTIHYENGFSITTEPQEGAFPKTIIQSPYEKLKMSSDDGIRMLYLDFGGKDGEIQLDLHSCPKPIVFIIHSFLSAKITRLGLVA
UniProt Q9BX95: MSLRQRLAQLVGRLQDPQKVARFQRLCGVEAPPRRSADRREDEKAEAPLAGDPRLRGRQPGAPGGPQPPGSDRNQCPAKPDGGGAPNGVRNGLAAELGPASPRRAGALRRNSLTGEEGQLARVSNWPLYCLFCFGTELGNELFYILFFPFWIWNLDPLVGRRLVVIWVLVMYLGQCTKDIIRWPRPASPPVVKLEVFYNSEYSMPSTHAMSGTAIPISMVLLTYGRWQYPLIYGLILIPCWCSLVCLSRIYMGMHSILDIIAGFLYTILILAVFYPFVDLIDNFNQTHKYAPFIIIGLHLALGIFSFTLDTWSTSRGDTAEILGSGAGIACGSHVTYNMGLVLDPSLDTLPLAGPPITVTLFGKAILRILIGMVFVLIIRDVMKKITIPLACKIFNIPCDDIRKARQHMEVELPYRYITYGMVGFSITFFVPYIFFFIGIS
UniProt Q9NTJ3, whole entry: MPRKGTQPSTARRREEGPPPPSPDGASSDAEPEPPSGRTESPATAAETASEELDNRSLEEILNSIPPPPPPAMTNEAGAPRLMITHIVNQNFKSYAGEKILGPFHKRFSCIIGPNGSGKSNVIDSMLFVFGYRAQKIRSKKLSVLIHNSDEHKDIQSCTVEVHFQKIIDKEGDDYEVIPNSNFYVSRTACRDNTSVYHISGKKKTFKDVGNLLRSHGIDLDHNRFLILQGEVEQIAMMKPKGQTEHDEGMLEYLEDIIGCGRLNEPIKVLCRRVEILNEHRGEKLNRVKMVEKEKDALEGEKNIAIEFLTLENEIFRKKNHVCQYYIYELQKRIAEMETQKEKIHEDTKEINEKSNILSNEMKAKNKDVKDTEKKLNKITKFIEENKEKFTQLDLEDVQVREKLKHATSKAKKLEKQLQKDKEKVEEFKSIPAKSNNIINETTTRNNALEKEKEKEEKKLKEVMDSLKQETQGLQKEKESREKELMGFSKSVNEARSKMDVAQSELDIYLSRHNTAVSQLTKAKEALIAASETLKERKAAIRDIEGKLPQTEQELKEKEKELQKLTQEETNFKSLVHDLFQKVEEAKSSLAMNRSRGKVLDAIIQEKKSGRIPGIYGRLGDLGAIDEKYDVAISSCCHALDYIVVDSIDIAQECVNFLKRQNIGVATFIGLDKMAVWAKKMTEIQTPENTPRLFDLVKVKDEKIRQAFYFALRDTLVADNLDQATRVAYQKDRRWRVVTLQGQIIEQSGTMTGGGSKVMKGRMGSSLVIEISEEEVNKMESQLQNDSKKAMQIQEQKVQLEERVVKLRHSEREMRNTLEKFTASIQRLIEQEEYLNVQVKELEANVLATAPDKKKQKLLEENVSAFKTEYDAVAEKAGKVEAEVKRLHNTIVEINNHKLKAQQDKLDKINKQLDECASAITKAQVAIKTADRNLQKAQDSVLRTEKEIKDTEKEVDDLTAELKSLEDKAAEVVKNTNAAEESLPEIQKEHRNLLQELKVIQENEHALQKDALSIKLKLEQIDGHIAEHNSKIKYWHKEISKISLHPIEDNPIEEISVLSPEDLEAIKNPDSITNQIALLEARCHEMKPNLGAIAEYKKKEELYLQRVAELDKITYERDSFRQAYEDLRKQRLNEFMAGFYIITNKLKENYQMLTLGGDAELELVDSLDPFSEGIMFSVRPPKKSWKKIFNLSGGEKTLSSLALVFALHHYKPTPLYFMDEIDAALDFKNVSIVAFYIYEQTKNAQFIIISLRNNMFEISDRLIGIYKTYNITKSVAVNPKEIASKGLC
UniProt Q6PCB7: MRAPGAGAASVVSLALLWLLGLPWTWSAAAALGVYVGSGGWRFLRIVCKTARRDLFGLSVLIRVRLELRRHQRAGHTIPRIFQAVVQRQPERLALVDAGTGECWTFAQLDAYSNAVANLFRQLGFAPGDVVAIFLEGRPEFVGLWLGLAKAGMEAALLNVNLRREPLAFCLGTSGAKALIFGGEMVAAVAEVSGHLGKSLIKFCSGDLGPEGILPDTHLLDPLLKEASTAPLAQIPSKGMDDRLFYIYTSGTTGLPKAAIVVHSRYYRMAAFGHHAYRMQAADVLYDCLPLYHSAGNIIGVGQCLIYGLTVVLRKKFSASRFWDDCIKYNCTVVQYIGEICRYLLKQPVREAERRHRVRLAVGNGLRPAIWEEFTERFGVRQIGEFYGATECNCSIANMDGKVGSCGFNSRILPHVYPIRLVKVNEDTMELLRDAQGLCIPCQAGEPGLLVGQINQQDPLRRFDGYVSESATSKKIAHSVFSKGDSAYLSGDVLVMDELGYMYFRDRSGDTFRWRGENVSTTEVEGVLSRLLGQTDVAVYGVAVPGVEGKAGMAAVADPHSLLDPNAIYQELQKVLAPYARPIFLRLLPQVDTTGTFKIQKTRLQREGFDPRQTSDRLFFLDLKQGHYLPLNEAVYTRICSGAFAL
UniProt Q8WXA9: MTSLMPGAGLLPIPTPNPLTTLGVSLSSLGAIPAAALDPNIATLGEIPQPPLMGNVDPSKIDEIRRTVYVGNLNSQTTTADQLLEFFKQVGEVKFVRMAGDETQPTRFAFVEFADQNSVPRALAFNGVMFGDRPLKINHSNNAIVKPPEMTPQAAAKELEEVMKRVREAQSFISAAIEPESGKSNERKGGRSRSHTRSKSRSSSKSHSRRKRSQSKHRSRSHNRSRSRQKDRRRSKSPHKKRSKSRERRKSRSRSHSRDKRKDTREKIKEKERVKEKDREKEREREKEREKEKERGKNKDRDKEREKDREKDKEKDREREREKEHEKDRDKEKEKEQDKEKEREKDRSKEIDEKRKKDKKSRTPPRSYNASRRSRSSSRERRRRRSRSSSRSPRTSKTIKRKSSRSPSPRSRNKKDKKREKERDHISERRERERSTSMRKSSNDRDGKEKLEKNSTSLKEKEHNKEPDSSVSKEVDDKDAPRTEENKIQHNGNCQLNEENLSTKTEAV

The other results are listed elsewhere or left out.

Compound in the test: COc1ccc(Cn2ccc3cc(C)c(C(=O)NO)cc32)cc1
Kind of test: dose-dependent thermal stabilisation call (2D-TPP, DLPTP, 10% FDR) (binary (1 = stabilised)); higher = stabilised by the compound. The note with it: system: HL-60 intact cells; concentration range 0.04-10 µM. On the procedure: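 2D thermal proteome profiling in intact HL-60 cells treated with BRD-3811 (0, 0.04, 0.29, 2, 10 uM) for 90 min at 37 C, then heated 3 min at one of 12 temperatures (42-63.9 C). Soluble protein was quantified by TMT10 MS. The value is the DLPTP call of the paper: dose-dependent thermal stabilisation over all temperatures at 10% FDR (F-test of a dose-response against a flat model); one experiment, one call per tested protein.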
For the target SLC2A13 (UniProt Q96QE2), the “dose-dependent thermal stabilisation call” value was inactive: 0. Regarding SLC39A8 (UniProt Q9C0K1), the “dose-dependent thermal stabilisation call” value was inactive: 0. As for SLC38A10 (UniProt Q9HBR0), the figure is inactive: 0.

SFXN2 (UniProt Q96NB2): the “dose-dependent thermal stabilisation call” value is inactive: 0. For SLC39A7 (UniProt Q92504), the “dose-dependent thermal stabilisation call” value was inactive: 0. Turning to SFT2D2 (UniProt O95562), the “dose-dependent thermal stabilisation call” value was inactive: 0. SLC30A9 (UniProt Q6PML9): the “dose-dependent thermal stabilisation call” value is inactive: 0.

Turning to SLC35C1 (UniProt Q96A29), the “dose-dependent thermal stabilisation call” value is inactive: 0.

As to SLC5A3 (UniProt P53794), the “dose-dependent thermal stabilisation call” value was inactive: 0. For SLMO2 (UniProt Q9Y3B1), the “dose-dependent thermal stabilisation call” value was inactive: 0.

Regarding SLC35B1 (UniProt P78383), the “dose-dependent thermal stabilisation call” value is inactive: 0. Consider SMARCD1 (UniProt Q96GM5), for which the “dose-dependent thermal stabilisation call” value is inactive: 0. In the case of SHCBP1 (UniProt Q8NEM2), the “dose-dependent thermal stabilisation call” value was inactive: 0.

With SLC9A1 (UniProt P19634), the “dose-dependent thermal stabilisation call” value was inactive: 0. Turning to SFRS5 (UniProt Q13243), the “dose-dependent thermal stabilisation call” value is inactive: 0. For SNTB1 (UniProt Q13884), the “dose-dependent thermal stabilisation call” value is inactive: 0.

With SNX27 (UniProt Q96L92), the “dose-dependent thermal stabilisation call” value was inactive: 0. In the case of SGPP1 (UniProt Q9BX95), the “dose-dependent thermal stabilisation call” value is inactive: 0. Turning to SMC4 (UniProt Q9NTJ3), the “dose-dependent thermal stabilisation call” value was inactive: 0. Consider SLC2A1 (UniProt P11166), for which the “dose-dependent thermal stabilisation call” value was inactive: 0. For the target SLC25A10 (UniProt Q9UBX3), the “dose-dependent thermal stabilisation call” value was inactive: 0. As for SLC27A1 (UniProt Q6PCB7), the figure is inactive: 0; as for SMG1 (UniProt Q96Q15), inactive: 0; as for SFRS12 (UniProt Q8WXA9), inactive: 0. For SLC25A30 (UniProt Q5SVS4), the “dose-dependent thermal stabilisation call” value is inactive: 0. On to SMYD2 (UniProt Q9NRG4), for which the “dose-dependent thermal stabilisation call” value is inactive: 0.
